# According to the supplement of paper PMC8728848:
# The other results are listed elsewhere or left out.
# B1: SUN4P (Saccharomyces cerevisiae), P53616 (protein)
# chain: MGSSHHHHHHSSGLVPRGSHNGSIYGDLADFSGPYEKFEDGTIPCGQFPSGQGVIPISWLDEGGWSGVENTDTSTGGSCKEGSYCSYACQPGMSKTQWPSDQPSDGRSIGGLLCKDGYLYRSNTDTDYLCEWGVDAAYVVSELSNDVAICLTDYPGTENMVIPTYVQAGDSLPLTVVDQDTYYTWQGLKTSAQYYVNNAGISVEDACVWGSSSSGVGNWAPLNFGAGSSDGVAYLSLIPNPNNGNALNFNVKIVAADDSSTVNGECIYENGSFSGGSDGCTVSVTAGKAKFVLYN
# What was measured:
# Assay in all cases: glycan array binding signal (z-score within array); higher = stronger binding
# Settings in all cases: glycan notation: IUPAC condensed, linker removed; mutation: R276L
# Kdn(a2-3)Gal(b1-3)GlcNAc = target: Kdn(a2-3)Gal(b1-3)GlcNAc
# Procedure, shortened: (§1)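 The binding signal is a Z-score computed within each array and averaged over linkers. Arrays of the same protein sequence at different concentrations or buffers were also averaged together. Data originate from 3228 arrays in the Consortium for Functional Glycomics database, kept only where the protein sequence was available.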
# Kdn(a2-3)Gal(b1-4)Glc = target: Kdn(a2-3)Gal(b1-4)Glc
# Procedure, shortened: as §1
# Kdn(a2-3)Gal(b1-4)GlcNAc = target: Kdn(a2-3)Gal(b1-4)GlcNAc
# Procedure, shortened: as §1
# [1] = target: Kdn(a2-3)Gal(b1-4)[Fuc(a1-3)]GlcNAc
# Procedure, shortened: as §1
# Kdn(a2-6)Gal(b1-4)GlcNAc = target: Kdn(a2-6)Gal(b1-4)GlcNAc
# Procedure, shortened: as §1
# [2] = target: Man(a1-2)Man(a1-2)Man(a1-3)Man
# Procedure, shortened: as §1
# [3] = target: Man(a1-2)Man(a1-2)Man(a1-6)[Man(a1-3)]Man
# Procedure, shortened: as §1
# Man(a1-2)Man(a1-3)Man = target: Man(a1-2)Man(a1-3)Man
# Procedure, shortened: as §1
# [4] = target: Man(a1-2)Man(a1-3)[Man(a1-2)Man(a1-6)]Man
# Procedure, shortened: as §1
# [5] = target: Man(a1-2)Man(a1-3)[Man(a1-2)Man(a1-6)]Man(a1-6)[Man(a1-2)Man(a1-2)Man(a1-3)]Man
# Procedure, shortened: as §1
# [6] = target: Man(a1-2)Man(a1-3)[Man(a1-2)Man(a1-6)]Man(a1-6)[Man(a1-2)Man(a1-2)Man(a1-3)]Man(b1-4)GlcNAc(b1-4)GlcNAc
# Procedure, shortened: as §1
# [7] = target: Man(a1-2)Man(a1-3)[Man(a1-6)]Man(a1-6)[Man(a1-2)Man(a1-3)]Man(b1-4)GlcNAc(b1-4)GlcNAc
# Procedure, shortened: as §1
# [8] = target: Man(a1-2)Man(a1-6)[Man(a1-3)]Man(a1-6)[Man(a1-2)Man(a1-2)Man(a1-3)]Man
# Procedure, shortened: as §1
# [9] = target: Man(a1-2)Man(a1-6)[Man(a1-3)]Man(a1-6)[Man(a1-2)Man(a1-2)Man(a1-3)]Man(b1-4)GlcNAc(b1-4)GlcNAc
# Procedure, shortened: as §1
# Man(a1-3)[Man(a1-6)]Man = target: Man(a1-3)[Man(a1-6)]Man
# Procedure, shortened: as §1
# [10] = target: Man(a1-3)[Man(a1-6)]Man(a1-6)[Man(a1-2)Man(a1-3)]Man(b1-4)GlcNAc(b1-4)GlcNAc
# Procedure, shortened: as §1
# [11] = target: Man(a1-3)[Man(a1-6)]Man(a1-6)[Man(a1-3)]Man
# Procedure, shortened: as §1
# [12] = target: Man(a1-3)[Man(a1-6)]Man(a1-6)[Man(a1-3)]Man(b1-4)GlcNAc(b1-4)GlcNAc
# Procedure, shortened: as §1
# [13] = target: Man(a1-3)[Man(a1-6)]Man(b1-4)GlcNAc(b1-4)GlcNAc
# Procedure, shortened: as §1
# [14] = target: Man(a1-3)[Man(a1-6)]Man(b1-4)GlcNAc(b1-4)[Fuc(a1-6)]GlcNAc
# Procedure, shortened: as §1
# Man(a1-6)Man = target: Man(a1-6)Man
# Procedure, shortened: as §1
# Man(b1-4)GlcNAc = target: Man(b1-4)GlcNAc
# Procedure, shortened: as §1
# MurNAc(b1-4)GlcNAc = target: MurNAc(b1-4)GlcNAc
# Procedure, shortened: as §1
# Neu5Ac(a2-3)Gal = target: Neu5Ac(a2-3)Gal
# Procedure, shortened: as §1
# [15] = target: Neu5Ac(a2-3)Gal(b1-3)GalNAc
# Procedure, shortened: as §1
# [16] = target: Neu5Ac(a2-3)Gal(b1-3)GalNAc(b1-3)Gal(a1-4)Gal(b1-4)Glc
# Procedure, shortened: as §1
# [17] = target: Neu5Ac(a2-3)Gal(b1-3)GalNAc(b1-4)Gal(b1-4)Glc
# Procedure, shortened: as §1
# [18] = target: Neu5Ac(a2-3)Gal(b1-3)GalNAc(b1-4)[Neu5Ac(a2-3)]Gal(b1-4)Glc
# Procedure, shortened: as §1
# [19] = target: Neu5Ac(a2-3)Gal(b1-3)GalNAc(b1-4)[Neu5Ac(a2-8)Neu5Ac(a2-3)]Gal(b1-4)Glc
# Procedure, shortened: as §1
# [20] = target: Neu5Ac(a2-3)Gal(b1-3)GalNAc6S
# Procedure, shortened: as §1
# [21] = target: Neu5Ac(a2-3)Gal(b1-3)GlcNAc
# Procedure, shortened: as §1
# [22] = target: Neu5Ac(a2-3)Gal(b1-3)GlcNAc(b1-2)Man
# Procedure, shortened: as §1
# [23] = target: Neu5Ac(a2-3)Gal(b1-3)GlcNAc(b1-2)Man(a1-3)[GlcNAc(b1-4)][Neu5Ac(a2-3)Gal(b1-3)GlcNAc(b1-2)Man(a1-6)]Man(b1-4)GlcNAc(b1-4)GlcNAc
# Procedure, shortened: as §1
# [24] = target: Neu5Ac(a2-3)Gal(b1-3)GlcNAc(b1-2)Man(a1-3)[Neu5Ac(a2-3)Gal(b1-3)GlcNAc(b1-2)Man(a1-6)]Man(b1-4)GlcNAc(b1-4)GlcNAc
# Procedure, shortened: as §1
# [25] = target: Neu5Ac(a2-3)Gal(b1-3)GlcNAc(b1-2)[Neu5Ac(a2-3)Gal(b1-3)GlcNAc(b1-4)]Man(a1-6)[Neu5Ac(a2-3)Gal(b1-3)GlcNAc(b1-2)Man(a1-3)]Man(b1-4)GlcNAc(b1-4)GlcNAc
# Procedure, shortened: as §1
# [26] = target: Neu5Ac(a2-3)Gal(b1-3)GlcNAc(b1-3)Gal(b1-3)GlcNAc
# Procedure, shortened: as §1
# [27] = target: Neu5Ac(a2-3)Gal(b1-3)GlcNAc(b1-3)Gal(b1-4)GlcNAc
# Procedure, shortened: as §1
# [28] = target: Neu5Ac(a2-3)Gal(b1-3)GlcNAc(b1-3)GalNAc
# Procedure, shortened: as §1
binder,measurement,setting,value
B1,glycan array binding signal (z-score),Kdn(a2-3)Gal(b1-3)GlcNAc,-0.443
same,glycan array binding signal (z-score),Kdn(a2-3)Gal(b1-4)Glc,-0.442
same,glycan array binding signal (z-score),Kdn(a2-3)Gal(b1-4)GlcNAc,0.403
same,glycan array binding signal (z-score),[1],-0.39
same,glycan array binding signal (z-score),Kdn(a2-6)Gal(b1-4)GlcNAc,1.11
same,glycan array binding signal (z-score),[2],-0.409
same,glycan array binding signal (z-score),[3],-0.472
same,glycan array binding signal (z-score),Man(a1-2)Man(a1-3)Man,0.385
same,glycan array binding signal (z-score),[4],0.404
same,glycan array binding signal (z-score),[5],-0.104
same,glycan array binding signal (z-score),[6],-0.685
same,glycan array binding signal (z-score),[7],0.466
same,glycan array binding signal (z-score),[8],-0.571
same,glycan array binding signal (z-score),[9],-0.826
same,glycan array binding signal (z-score),Man(a1-3)[Man(a1-6)]Man,0.998
same,glycan array binding signal (z-score),[10],0.811
same,glycan array binding signal (z-score),[11],-1.25
same,glycan array binding signal (z-score),[12],-0.955
same,glycan array binding signal (z-score),[13],-0.241
same,glycan array binding signal (z-score),[14],-0.543
same,glycan array binding signal (z-score),Man(a1-6)Man,-1.04
same,glycan array binding signal (z-score),Man(b1-4)GlcNAc,-1.04
same,glycan array binding signal (z-score),MurNAc(b1-4)GlcNAc,-0.784
same,glycan array binding signal (z-score),Neu5Ac(a2-3)Gal,0.2
same,glycan array binding signal (z-score),[15],-0.583
same,glycan array binding signal (z-score),[16],-1.53
same,glycan array binding signal (z-score),[17],0.344
same,glycan array binding signal (z-score),[18],0.815
same,glycan array binding signal (z-score),[19],0.107
same,glycan array binding signal (z-score),[20],-0.503
same,glycan array binding signal (z-score),[21],0.214
same,glycan array binding signal (z-score),[22],-1.11
same,glycan array binding signal (z-score),[23],-0.361
same,glycan array binding signal (z-score),[24],0.438
same,glycan array binding signal (z-score),[25],1.54
same,glycan array binding signal (z-score),[26],0.735
same,glycan array binding signal (z-score),[27],-0.287
same,glycan array binding signal (z-score),[28],-0.279

# Some of the entries above in another layout:
binder	measurement	setting	value
B1	glycan array binding signal (z-score)	Man(a1-2)Man(a1-3)Man	0.385
same	glycan array binding signal (z-score)	[4]	0.404
same	glycan array binding signal (z-score)	[5]	-0.104
same	glycan array binding signal (z-score)	[6]	-0.685
same	glycan array binding signal (z-score)	[7]	0.466
same	glycan array binding signal (z-score)	[8]	-0.571
same	glycan array binding signal (z-score)	[9]	-0.826
same	glycan array binding signal (z-score)	Man(a1-3)[Man(a1-6)]Man	0.998
same	glycan array binding signal (z-score)	[10]	0.811
same	glycan array binding signal (z-score)	[11]	-1.25
same	glycan array binding signal (z-score)	[12]	-0.955
